Binding data for 1 substance are collected here from publication PMC7847690.

Sequences of proteins named here, by UniProt entry; tags and fusion partners are left off.
UniProt Q04206: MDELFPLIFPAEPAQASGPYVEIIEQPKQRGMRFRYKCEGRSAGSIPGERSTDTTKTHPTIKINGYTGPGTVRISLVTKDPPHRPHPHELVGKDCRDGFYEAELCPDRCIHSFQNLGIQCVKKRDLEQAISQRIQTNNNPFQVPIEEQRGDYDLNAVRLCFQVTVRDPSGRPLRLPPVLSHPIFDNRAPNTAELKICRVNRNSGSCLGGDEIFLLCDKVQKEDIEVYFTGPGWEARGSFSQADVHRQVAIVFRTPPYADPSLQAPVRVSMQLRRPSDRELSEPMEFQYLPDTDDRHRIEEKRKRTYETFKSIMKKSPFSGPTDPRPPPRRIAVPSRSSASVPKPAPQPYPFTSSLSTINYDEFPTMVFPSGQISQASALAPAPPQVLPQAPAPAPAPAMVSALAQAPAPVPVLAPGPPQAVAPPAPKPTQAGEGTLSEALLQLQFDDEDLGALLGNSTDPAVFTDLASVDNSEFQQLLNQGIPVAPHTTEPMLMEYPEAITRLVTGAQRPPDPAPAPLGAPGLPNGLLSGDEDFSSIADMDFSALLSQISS
UniProt P13640: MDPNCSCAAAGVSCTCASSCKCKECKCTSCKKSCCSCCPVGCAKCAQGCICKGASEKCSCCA

The assay deals with NF-κB p65 subunit (UniProt Q04206). As to the kind of experiment: co-IP; not told in the text shown (Figure S5E; no co-IP method for this experiment in the methods).

No constants are given. Whether binding was seen depends on the method and setting. In cells and extracts the contact can be indirect.

“Metallothionein-1G (from UniProt P13640 1-62)”: the binding entry is listed as “no binding”.
